In patent US10947260B2, “Phosphinolactone derivatives and pharmaceutical uses thereof” (INSTITUT NATIONAL DE LA SANTE ET DE LA RECHERCHE MEDICALE …, priority 2016, dated 2021):
At least one compound was matched to its structure with a doubt left.

Tests used:
[1] = tested on: mice treated with Aβ25-35; assay: Measurements of oxidative stress (ROS by DCF fluorescence, lipid peroxidation), Aβ25-35 model; type: in vivo; details: 0.7 mg/kg IP; Day 9
[2] = tested on: choline acetyltransferase; assay: Cholinergic tonus: choline acetyltransferase activity, Aβ25-35 model; type: in vivo, mice; details: 0.7 mg/kg IP
[3] = tested on: mice treated with Aβ25-35; assay: Object recognition test, Aβ25-35 model; type: in vivo; details: 0.7 mg/kg IP; Days 7 to 9; session 3
APPSwe mice [4] = assay: Biochemical analyses in hippocampus of APPSwe mice; type: in vivo; details: 2 mg/kg/j IP
Experimental: FIG. 12: Biochemical analyses of the effect of treatments with compound 3b (a) or 3c (b) in the hippocampus of APPSwe mice. Oxidative stress was measured via the level of peroxidation of membrane lipids at (a), or DCF fluorescence at (b). The expression levels of synaptophysin, Bax, IL1β and TNFα were measured using commercial Elisa kits. The values are given as % of the control group WT/V. N=6-8 per group. *p<0.05, **p<0.01 compared with group WT/V; #p<0.05, ##p<0.01 compared with group APPSwe/V; Student t-test.
After sacrifice, the hippocampus and brain cortex of the mice were dissected and frozen to −80° C. until use. The accumulation of reactive oxygen species was measured by fluorescence of 2′,7′-dichlorofluorescein (DCF) in the hippocampus of the mice ex vivo. DCF diacetate (0.5 μM) (Sigma-Aldrich) was added to SDS-soluble fractions of hippocampus extract. After 30 min at 37° C., DCF fluorescence was quantified (excitation at 485 nm, emission at 530 nm) in a Fluoroskan Ascent spectrofluorometer (Thermo Scientific, Waltham, USA), and normalized with the protein concentrations of the extracts.
Peroxidation of membrane lipids was measured using the cumene/xylenol method. The hippocampi were homogenized in methanol (1:10), centrifuged at 1 000 g for 5 min and the supernatant collected. Aliquots were added to a solution containing 1 mM FeSO4, 0.25 m H2SO4, 1 mM xylenol orange and incubated for 30 min at ambient temperature. Absorbance was measured at 580 nm (A5801), then 10 μl of 1 mM cumene hydroperoxide (CHP) was added and the sample incubated 30 min at ambient temperature. Absorbance was measured at 580 nm (A5802). Lipid peroxidation level was determined as CHP equivalents: CHP eq.=A5801/A5802×[CHP (nmol)]×dilution, and calculated in CHP eq. per tissue weight expressed as % of the control group.
Various biochemical parameters were analysed in the hippocampus of APPSwe mice after treatments with 3b, 2 mg/kg/j IP, or 3c, 1 mg/kg/j IP (FIG. 12).

APPSwe mice [5] = assay: Spatial learning in pool, APPSwe mice; type: in vivo; details: 3b
Experimental: FIG. 9: Spatial learning in pool (a-c) and object recognition (d-f) for APPSwe mice after 2-month treatment with compound 3b. Pool: acquisition profiles of WT mice treated with V and 3b (2 mg/kg) (a) or APPSwe mice (b). (c) Presence in training quadrant (T) and mean in the other quadrants (o) during trial test performed 48 h after the last training session. Friedman non-parametric ANOVA with repeated measures: Fr=21.7, p<0.001 for the group WT/V, Fr=21.8, p<0.001 for the group WT/3b at (a); Fr=13.0, p<0.05 for group APPSwe/V, Fr=12.2, p<0.05 for group APPSwe/3b at (b). […]
The pool was a circular water chamber (diameter 140 cm, height 40 cm). […] Swims could be recorded using Videotrack® ViewPoint software, (Champagne-au-Mont-d'Or, France), with trajectories analysed for time and distance. […]
Acquisition phase: this consisted of 3 swims per day for 5 days with an interval of 20 min. […] Swim latency was measured. […] The median of swim times was calculated for each day and expressed for the experimental group as a mean±SEM.
Recall phase: a trial test was conducted […] after the last acquisition session. […] The session was monitored by video and the time spent in the training quadrant (where the platform had been placed) was measured. […]

`CC1(C)COP(=O)(c2cccc(Cl)c2)C(C)(C)N1` (racemic) [Compound 3b, (±)-2-(3-Chlorophenyl)-2-oxo-3,3,5,5-tetramethyl-[1,4,2]-oxazaphosphinane] was tested, and the “reactive oxygen species (ROS) induction in hippocampus, DCF fluorescence” value [1] was “very significant blocking of ROS induction”, the “decrease in choline acetyltransferase activity” value [2] was “blocked” and the “preference for novel object (object recognition, contacts and interaction time)” value [3] was “restores significant preference”. For the same compound, the “Bax level, hippocampus” value (APPSwe mice [4]) was “did not affect”, the “IL1β level, hippocampus” value (APPSwe mice [4]) was “did not affect” and the “TNFα level, hippocampus” value (APPSwe mice [4]) was “significantly reduced”. For the same compound, the “oxidative stress (peroxidation of membrane lipids), hippocampus” value (APPSwe mice [4]) was “significantly reduced”, the “synaptophysin level, hippocampus” value (APPSwe mice [4]) was “did not affect” and the “pool acquisition latencies, APPSwe animals” value (APPSwe mice [5]; 2-month treatment) was “tends to reduce these latencies”. The “presence in the training quadrant at trial test, APPSwe mice” value (APPSwe mice [5]; 48 h after last acquisition session) was “significantly restores preferred presence in the training quadrant”.
